Measured values taken from PubChem BioAssay AID540276 (National Center for Advancing Translational Sciences (NCATS), 2011).
Values joined by “and” are separate entries in the source; they are usually repeats but may differ in a detail not shown here. Equal entries are not always repeated. The campaign covered roughly 300,000 compounds. About 5,400 (1.8%) were called active. Inconclusive means that the source gave no clear call. Such entries were picked first, then a sample of the others. The call rests on the fitted dose curve; tested in HEK293 cells. Where the call is inconclusive, the potency comes from a doubtful curve fit.

Experiment: qHTS for inhibitors of binding or entry into cells for Marburg Virus
Details: Marburg virus pseudotyped entry inhibition, cell reporter; series mostly up to 37.8 µM
Potency means the concentration at half of the fitted maximal effect.

Question: With `O=C(N=Nc1c(O)[nH]c2ccccc12)c1cc(-c2cccs2)[nH]n1` as the compound, how does the Potency read?
Answer: inconclusive: 6.31 µM [activator, partial curve, poor fit]

Question: Which Potency does the source give for `CCOc1ccc(NC(=O)C(C)SC(N)=O)cc1` (stereo not given) here?
Answer: inactive

Question: For `O=[N+]([O-])c1ccc(NN=Cc2ccccc2O)nc1`, which Potency is on record?
Answer: inconclusive: 35.5 µM [inhibitor, single point]

Question: Which Potency does the source give for `COc1cc(NC(=O)c2cc([N+](=O)[O-])ccc2NC(=O)CNC2CCCCC2C)cc(OC)c1` (stereo not given) here?
Answer: inconclusive: 35.5 µM [inhibitor, single point]

Question: For `Cc1ncc([N+](=O)[O-])n1CCOC(=O)NC(NCc1cccnc1)C(Cl)(Cl)Cl` (stereo not given), which Potency is on record?
Answer: inconclusive: 8.2 µM [activator, partial curve, poor fit]

Question: Which Potency does the source give for `Cc1ccccc1OCC(O)CN1CCN(CC(O)COc2ccccc2C)C(C)C1` (stereo not given) here?
Answer: inconclusive: 2.24 µM [inhibitor, partial curve, poor fit]

Question: Which Potency does the source give for `COc1ccc(CCNC(=O)c2[nH]c(C)c(C(C)=O)c2C)cc1` here?
Answer: inconclusive: 35.5 µM [inhibitor, single point]

Question: For `CC(C)(C)c1ccc(CNC(=O)c2ccc3c(c2)NC(=O)CO3)cc1`, which Potency is on record?
Answer: inconclusive: 5.01 µM [inhibitor, full curve, poor fit]

Question: For `O=C(Nc1nc2ccccc2[nH]1)c1cccs1`, which Potency is on record?
Answer: inactive

Question: For `CC(C)CNC(=O)CC(c1ccccc1)c1c(O)ccc2ccccc12` (stereo not given), which Potency is on record?
Answer: inconclusive: 29.1 µM [inhibitor, single point]

Question: Which Potency does the source give for `c1ccn2c(SCc3ccc4c(c3)OCO4)nnc2c1` here?
Answer: inconclusive: 1.78 µM [activator, full curve, poor fit]

Question: With `N#CC1(NC(=O)COC(=O)c2cc(=O)[nH]c3ccccc23)CCCCC1` as the compound, how does the Potency read?
Answer: inconclusive: 6.31 µM [inhibitor, single point]

Question: For `COc1ccccc1N1CCN(CCc2c[nH]c3cc4c(cc23)OCO4)CC1`, which Potency is on record?
Answer: inconclusive: 35.5 µM [inhibitor, partial curve, poor fit]

Question: Which Potency does the source give for `Cc1cc(C(=O)Cn2cc(C(F)(F)F)ccc2=O)c(C)n1-c1ccccc1` here?
Answer: inconclusive: 25.1 µM [inhibitor, single point]

Question: With `Cc1ccccc1C(OCC(O)CN1CCC(C(N)=O)CC1)c1ccccc1` (stereo not given) as the compound, how does the Potency read?
Answer: inconclusive: 35.5 µM [inhibitor, single point]

Question: With `O=C(NCCn1cc(SCc2ccc(C(F)(F)F)cc2)c2ccccc21)c1cccs1` as the compound, how does the Potency read?
Answer: inconclusive: 35.5 µM [inhibitor, single point]

Question: For `Cc1cc(C)nc(NC(=NCCc2c[nH]c3ccccc23)NC(=O)C(C)(C)C)n1`, which Potency is on record?
Answer: inconclusive: 31.6 µM [activator, single point]

Question: Which Potency does the source give for `CC(=O)[C@@H]1[C@@H](C(=O)c2ccc(C)cc2)[C@]2(C(=O)Nc3ccccc32)[C@H]2C=Cc3cc(F)ccc3N12` here?
Answer: inconclusive: 29.1 µM [inhibitor, single point] and inconclusive: 35.5 µM [inhibitor, single point]

Question: With `O=C(Nc1ccc2c(c1)CCC2)c1ccc(Br)o1` as the compound, how does the Potency read?
Answer: inconclusive: 2.82 µM [activator, partial curve]

Question: With `COC(=O)CCC(=O)c1oc2ccc(OC)cc2c1N` as the compound, how does the Potency read?
Answer: inconclusive: 3.16 µM [activator, partial curve, poor fit]

Question: For `CCOC(=O)C1C(=O)C=C(c2ccc(C)cc2)CC1c1cccc([N+](=O)[O-])c1` (stereo not given), which Potency is on record?
Answer: inconclusive: 14.1 µM [inhibitor, single point]

Question: For `COc1ccc2c(c1)c(N=O)c(O)n2C`, which Potency is on record?
Answer: inconclusive: 20 µM [inhibitor, single point]

Question: For `Cc1sc2ncnc(SCC(=O)NC(=O)c3cccn3C)c2c1C`, which Potency is on record?
Answer: inconclusive: 3.16 µM [inhibitor, partial curve, poor fit]

Question: With `CCOc1ccc(CSC(=N)N)cc1[N+](=O)[O-]` as the compound, how does the Potency read?
Answer: inconclusive: 10 µM [inhibitor, partial curve]

Question: Which Potency does the source give for `COc1ccc(NC(=O)c2cc(-c3ccncc3)nc3ccccc23)c(OC)c1` here?
Answer: active: 5.62 µM

Question: For `Cc1nc(CN(C)C(=O)CC2C(=O)NCCN2Cc2ccc(F)cc2)cs1` (stereo not given), which Potency is on record?
Answer: inactive

Question: With `O=C(Nc1cccc(S(=O)(=O)N2CCCCCC2)c1)c1cc(=O)c2ccccc2o1` as the compound, how does the Potency read?
Answer: inconclusive: 11.2 µM [inhibitor, single point]

Question: For `CCOc1ccccc1NC(=O)CSc1nnc2c(CC)c(C)nc(N)n12`, which Potency is on record?
Answer: inactive

Question: With `Cc1cccc(NS(=O)(=O)c2cccc(C(=O)N3CCN(c4ccccn4)CC3)c2)c1` as the compound, how does the Potency read?
Answer: inconclusive: 35.5 µM [inhibitor, single point]

Question: For `COc1ccc2c(N)c(C(=O)NN)[nH]c2c1`, which Potency is on record?
Answer: inconclusive: 3.16 µM [inhibitor, partial curve, poor fit]

Question: Which Potency does the source give for `Cc1cc(NC(=O)CSc2nncc(=O)n2N)no1` here?
Answer: inconclusive: 10 µM [inhibitor, partial curve]

Question: With `CCSC1=N/C(=C\c2ccc(C(=O)O)cc2)C(=O)S1` as the compound, how does the Potency read?
Answer: inactive

Question: With `COc1ccc(S(=O)(=O)N2CCN(C(=O)c3cc(-c4ccc(Br)cc4)n[nH]3)CC2)cc1OC` as the compound, how does the Potency read?
Answer: inconclusive: 35.5 µM [inhibitor, single point]

Question: Which Potency does the source give for `COc1cccc(C2C(C(=O)OC(C)C)=C(C)N=c3s/c(=C\c4ccc(C(=O)O)cc4)c(=O)n32)c1` (stereo not given) here?
Answer: inconclusive: 11.2 µM [inhibitor, partial curve, poor fit]

Question: Which Potency does the source give for `c1ccc(CSc2nc3ccccc3[nH]2)cc1` here?
Answer: inconclusive: 29.1 µM [inhibitor, single point]

Question: Which Potency does the source give for `CCCCC(=O)Nc1ccc2oc(-c3ccncc3)nc2c1` here?
Answer: inconclusive: 25.1 µM [inhibitor, single point]

Question: For `COc1ccc(Cl)cc1C(=O)NCC(c1ccco1)N1CCCC1` (stereo not given), which Potency is on record?
Answer: inconclusive: 29.1 µM [inhibitor, single point]

Question: For `O=C(CCN1CCN(C(c2ccccc2)c2ccccc2)CC1)N/N=C/c1ccc(O)cc1`, which Potency is on record?
Answer: inconclusive: 35.5 µM [inhibitor, single point]

Question: For `COc1ccc(N2CCN(C(=O)Nc3ccc(Cl)cc3)CC2)cc1`, which Potency is on record?
Answer: inactive

Question: With `CC1(c2ccccc2Cl)NC(=O)N(CC(=O)NCCC2=CCCCC2)C1=O` (stereo not given) as the compound, how does the Potency read?
Answer: inactive

Question: Which Potency does the source give for `CCOc1ccc(-c2n[nH]c3c2C(c2cccs2)N(c2ccc(Br)cc2)C3=O)cc1` (stereo not given) here?
Answer: inconclusive: 35.5 µM [inhibitor, single point]

Question: Which Potency does the source give for `COc1cccc(C2CC(c3cccs3)=NN2C(=O)c2ccco2)c1O` (stereo not given) here?
Answer: inactive

Question: With `O=C(Cn1c(=O)oc2ccccc21)N1CCCC1` as the compound, how does the Potency read?
Answer: inconclusive: 6.31 µM [activator, partial curve, poor fit]

Question: Which Potency does the source give for `Cc1cccc(C(=O)NCc2nnc(SCC(=O)Nc3ccccc3F)n2-c2ccccc2)c1` here?
Answer: inconclusive: 0.562 µM [inhibitor, partial curve, poor fit]

Question: Which Potency does the source give for `O=S1(=O)C=C(Sc2nc3cc(Cl)ccc3o2)c2ccccc21` here?
Answer: active: 7.94 µM

Question: With `O=C(Nc1ccc(Oc2ccccc2)nc1)C1CCN(Cc2cccc(F)c2)CC1` as the compound, how does the Potency read?
Answer: inconclusive: 12.6 µM [inhibitor, partial curve, poor fit]

Question: With `COc1ccc(CN(C(=O)c2ccc(OCC(C)C)cc2)C2CCS(=O)(=O)C2)cc1` (stereo not given) as the compound, how does the Potency read?
Answer: inactive

Question: With `Cc1c(C)c2c(OCC(=O)NCC(=O)NCC(=O)O)cc3c(c2oc1=O)CCC(C)(C)O3` as the compound, how does the Potency read?
Answer: inconclusive: 15.8 µM [activator, single point]

Question: Which Potency does the source give for `N#C/C(=C(/O)c1ccc2c(c1)OCO2)c1nc2cc(C(F)(F)F)ccc2s1` here?
Answer: inconclusive: 35.5 µM [inhibitor, single point]

Question: Which Potency does the source give for `CCCN(CC(=O)Nc1ccccc1Br)CC(=O)Nc1ccc(F)c(F)c1F` here?
Answer: inconclusive: 3.16 µM [inhibitor, single point]

Question: Which Potency does the source give for `CC1=C(C#N)c2nc(N)c(C#N)c(C)c2/C1=C\c1ccc(-c2ccccc2C(=O)O)o1` here?
Answer: inconclusive: 0.562 µM [activator, full curve, poor fit]

Question: For `O=C(CCNS(=O)(=O)c1cccs1)NCc1ccccc1`, which Potency is on record?
Answer: inactive

Question: Which Potency does the source give for `S=C(Nc1ccc(Br)cc1Cl)NC1CCN(Cc2ccccc2)CC1` here?
Answer: inconclusive: 7.94 µM [inhibitor, partial curve, poor fit]

Question: Which Potency does the source give for `CCOc1ccc(NC(=O)CSc2nncc(=O)[nH]2)cc1` here?
Answer: inconclusive: 35.5 µM [inhibitor, partial curve, poor fit]

Question: Which Potency does the source give for `CC1CCCc2sc3ncn(N)c(=N)c3c21` (stereo not given) here?
Answer: inactive

Question: With `CC1=C(C)CC(C(=O)Nc2nc(-c3ccc(C)cc3C)c(C)s2)C(C(=O)O)C1` (stereo not given) as the compound, how does the Potency read?
Answer: inconclusive: 0.447 µM [inhibitor, partial curve, poor fit]

Question: With `CCOC(=O)Cn1nc(-c2ccc(Cl)cc2)cc1N` as the compound, how does the Potency read?
Answer: inactive

Question: For `CCOC(=O)/C(C(C)=O)=C1\OC(=O)c2ccccc21`, which Potency is on record?
Answer: inconclusive: 0.92 µM [inhibitor, full curve]

Question: Which Potency does the source give for `O=C1OCCN1N=Cc1ccco1` here?
Answer: inconclusive: 5.01 µM [inhibitor, full curve, poor fit]

Question: With `Cc1cccc(Oc2ccccc2NC(=O)CSCC(=O)Nc2cc(C)on2)c1` as the compound, how does the Potency read?
Answer: active: 3.55 µM

Question: Which Potency does the source give for `O=C(CSc1nc2ccccc2o1)c1cc2ccccc2oc1=O` here?
Answer: inconclusive: 35.5 µM [activator, single point]

Question: Which Potency does the source give for `N#Cc1ccc(NC(=O)COC(=O)c2cccnc2Cl)cc1` here?
Answer: inconclusive: 7.94 µM [activator, partial curve, poor fit]

Question: Which Potency does the source give for `CNc1oc(-c2ccc(OCc3ccccc3)cc2)nc1C#N` here?
Answer: inactive

Question: For `COc1ccc(-n2cnnc2SCC(=O)N2CCN(c3ccccc3)CC2)cc1`, which Potency is on record?
Answer: inactive

Question: For `O=C(CSc1nc2ccccc2c(=O)n1-c1ccccc1)c1c[nH]c2ccccc12`, which Potency is on record?
Answer: inconclusive: 25.1 µM [inhibitor, single point]
